The values below come from article PMC7641127, “MCL1 binds and negatively regulates the transcriptional function of tumor suppressor p73” (Cell Death & Disease, 2020).

Protein sequences, listed by entry. Tags and fused reporters are not part of them.
UniProt Q07820: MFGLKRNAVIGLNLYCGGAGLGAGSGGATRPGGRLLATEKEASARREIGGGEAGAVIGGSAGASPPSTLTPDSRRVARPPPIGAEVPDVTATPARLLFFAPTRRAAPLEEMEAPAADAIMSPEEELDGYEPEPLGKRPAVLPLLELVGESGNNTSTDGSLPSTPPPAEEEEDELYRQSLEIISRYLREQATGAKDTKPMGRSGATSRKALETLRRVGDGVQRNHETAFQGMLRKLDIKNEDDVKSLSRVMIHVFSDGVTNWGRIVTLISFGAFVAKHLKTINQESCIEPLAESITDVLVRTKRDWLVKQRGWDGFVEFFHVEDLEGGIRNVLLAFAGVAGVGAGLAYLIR

This assay addresses T1, FLAG-tagged TAp73α (human) (UniProt O15350).
T1 sequence: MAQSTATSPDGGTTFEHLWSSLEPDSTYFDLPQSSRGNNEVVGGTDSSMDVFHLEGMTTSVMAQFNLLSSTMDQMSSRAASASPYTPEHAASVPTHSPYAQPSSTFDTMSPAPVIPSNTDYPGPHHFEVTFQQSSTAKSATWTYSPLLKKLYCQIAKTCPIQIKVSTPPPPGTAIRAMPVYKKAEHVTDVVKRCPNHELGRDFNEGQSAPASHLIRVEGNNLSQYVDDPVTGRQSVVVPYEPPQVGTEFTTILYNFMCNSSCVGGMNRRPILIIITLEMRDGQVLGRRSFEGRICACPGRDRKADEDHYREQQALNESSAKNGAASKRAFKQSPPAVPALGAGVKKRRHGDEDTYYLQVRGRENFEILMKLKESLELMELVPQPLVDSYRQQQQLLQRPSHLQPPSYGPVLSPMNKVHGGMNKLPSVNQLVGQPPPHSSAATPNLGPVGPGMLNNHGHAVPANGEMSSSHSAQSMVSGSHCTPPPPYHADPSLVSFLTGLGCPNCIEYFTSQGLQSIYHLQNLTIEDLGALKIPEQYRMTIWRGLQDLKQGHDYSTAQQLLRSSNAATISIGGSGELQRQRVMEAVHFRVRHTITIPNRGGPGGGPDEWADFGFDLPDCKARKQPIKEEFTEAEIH
Description: co-IP; HEK293T co-transfected with MCL1 and FLAG-TAp73α or FLAG control, 50 nM bortezomib for 24 h; FLAG precipitated with anti-FLAG magnetic beads; western blot. Background: A western blot detects proteins with antibodies after separation by electrophoresis.

These are yes or no findings as the source states them, for the method shown. Binding seen in cells or lysates may run through a third protein. Some binding calls cover weakened binding; strength is not graded here. Sequences can lack the tags named with a protein.

As to “MCL1 (full length human, overexpressed in HEK293T) (from UniProt Q07820 1-350)”, the binding result is “binds weakly”.
